Reference: article PMC8357632
These are yes or no findings as the source states them, for the method shown. For some of these results: In cells and extracts the contact can be indirect. Some results given as binding are weak or reduced against the parent protein; the word gives no strength.

Columns and labels:
[1] = target: T1, Snu71 (S. cerevisiae (endogenous in yeast whole-cell extract)) (UniProt P53207); assay: cross-linking; CXMS: MS2 affinity-purified ΔBS-A pre-A complexes cross-linked with 250 μM BS3 for 1 h at 8 °C, glycerol gradient, tryptic digest, mass spectrometry, pLink 2.3.9, FDR 1% or 5%
T1 sequence: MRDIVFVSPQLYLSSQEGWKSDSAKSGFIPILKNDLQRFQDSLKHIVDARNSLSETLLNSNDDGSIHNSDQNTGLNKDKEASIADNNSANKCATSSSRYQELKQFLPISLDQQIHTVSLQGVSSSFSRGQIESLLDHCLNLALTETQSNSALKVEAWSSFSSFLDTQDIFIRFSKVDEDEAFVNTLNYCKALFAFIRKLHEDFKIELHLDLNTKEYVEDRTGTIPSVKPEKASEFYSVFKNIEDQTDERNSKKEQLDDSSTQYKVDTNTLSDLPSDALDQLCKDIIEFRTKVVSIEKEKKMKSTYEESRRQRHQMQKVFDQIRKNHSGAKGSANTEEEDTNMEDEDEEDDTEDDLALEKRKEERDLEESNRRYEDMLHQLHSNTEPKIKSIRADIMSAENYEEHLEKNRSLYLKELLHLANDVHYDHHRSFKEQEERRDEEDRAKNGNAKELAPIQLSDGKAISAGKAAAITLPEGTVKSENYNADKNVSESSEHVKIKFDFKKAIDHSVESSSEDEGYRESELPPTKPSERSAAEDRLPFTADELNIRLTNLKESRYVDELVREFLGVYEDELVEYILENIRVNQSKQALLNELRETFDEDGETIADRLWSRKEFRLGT

[2] = target: T2, Hsh155 (S. cerevisiae (endogenous in yeast whole-cell extract)) (UniProt P49955); assay: as above
T2 sequence: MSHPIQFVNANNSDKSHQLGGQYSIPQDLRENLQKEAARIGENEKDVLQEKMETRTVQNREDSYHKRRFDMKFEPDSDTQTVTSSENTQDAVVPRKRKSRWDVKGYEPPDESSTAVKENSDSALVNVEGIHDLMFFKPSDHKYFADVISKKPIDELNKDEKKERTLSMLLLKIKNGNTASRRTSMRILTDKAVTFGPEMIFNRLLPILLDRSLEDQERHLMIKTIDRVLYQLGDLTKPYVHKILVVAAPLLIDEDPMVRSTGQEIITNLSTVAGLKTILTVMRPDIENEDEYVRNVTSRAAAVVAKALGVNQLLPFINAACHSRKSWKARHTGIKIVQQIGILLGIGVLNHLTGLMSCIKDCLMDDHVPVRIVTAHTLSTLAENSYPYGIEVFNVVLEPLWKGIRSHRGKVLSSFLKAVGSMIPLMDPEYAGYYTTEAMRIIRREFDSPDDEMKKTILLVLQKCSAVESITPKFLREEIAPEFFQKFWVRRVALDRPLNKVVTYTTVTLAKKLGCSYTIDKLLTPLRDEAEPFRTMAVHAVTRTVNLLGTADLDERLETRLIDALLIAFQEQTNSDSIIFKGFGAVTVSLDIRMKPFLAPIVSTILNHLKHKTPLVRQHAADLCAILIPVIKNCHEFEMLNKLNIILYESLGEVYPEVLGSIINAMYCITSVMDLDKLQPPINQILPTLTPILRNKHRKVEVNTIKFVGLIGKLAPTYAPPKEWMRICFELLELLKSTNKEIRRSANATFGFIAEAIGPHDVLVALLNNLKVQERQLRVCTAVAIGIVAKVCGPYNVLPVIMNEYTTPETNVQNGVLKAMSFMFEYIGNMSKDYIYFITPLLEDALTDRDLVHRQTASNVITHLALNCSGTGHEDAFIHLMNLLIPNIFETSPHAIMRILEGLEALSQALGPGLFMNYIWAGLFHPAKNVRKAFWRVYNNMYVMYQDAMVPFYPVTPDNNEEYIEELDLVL

[3] = target: T3, Prp9 (S. cerevisiae (endogenous in yeast whole-cell extract)) (UniProt P19736); assay: cryo-EM structure; ΔBS-A pre-A complex assembled in yeast extract on MS2-tagged ΔBS-A Act pre-mRNA, amylose affinity purified, BS3 and glutaraldehyde gradient fixed; 5.9 Å overall, U1 4.1 Å, U2 5'-region 8.3 Å, U2 3'-region 9.5 Å; U2 components docked as rigid bodies
T3 sequence: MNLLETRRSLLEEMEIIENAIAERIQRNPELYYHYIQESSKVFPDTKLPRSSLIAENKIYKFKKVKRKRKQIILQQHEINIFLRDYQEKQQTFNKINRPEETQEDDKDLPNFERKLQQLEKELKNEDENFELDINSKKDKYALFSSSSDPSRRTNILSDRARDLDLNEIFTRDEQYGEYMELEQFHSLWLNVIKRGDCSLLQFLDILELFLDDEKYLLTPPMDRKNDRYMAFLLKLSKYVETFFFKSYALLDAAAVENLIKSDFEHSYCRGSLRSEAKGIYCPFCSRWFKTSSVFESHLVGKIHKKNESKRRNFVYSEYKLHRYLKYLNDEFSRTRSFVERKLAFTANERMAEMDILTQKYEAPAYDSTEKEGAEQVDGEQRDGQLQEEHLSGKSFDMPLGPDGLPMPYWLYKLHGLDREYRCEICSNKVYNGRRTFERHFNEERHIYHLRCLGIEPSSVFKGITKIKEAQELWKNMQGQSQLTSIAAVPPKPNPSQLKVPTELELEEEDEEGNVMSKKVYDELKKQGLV

[4] = target: T3, Prp9 (S. cerevisiae (endogenous in yeast whole-cell extract)); assay: cryo-EM structure; U257A pre-A complex assembled in yeast extract on U257A Act pre-mRNA; 10.4 Å overall, U1 7.5 Å, U2 13 Å; the ΔBS-A pre-A model fitted into the density

Measured: binding

B1: Prp5 (enzyme, UniProt P21372 1-849)
chain: METIDSKQNINRESLLEERRKKLAKWKQKKAQFDAQKEHQTSRNDIVTNSLEGKQTTEKFTERQERVKEELRKRKNEFRKSDEPVSVKPSKKKSKRSKVKKKISFDFSDDDDSEIGVSFRSKEHIQKAPEHDNEKDPLDEFMTSLKEEKMSNSKGMYDRGDILDVEDQLFELGGTDDEDVEDNTDNSNIAKIAKLKAKKRVKQIYYSPEELEPFQKNFYIESETVSSMSEMEVEELRLSLDNIKIKGTGCPKPVTKWSQLGLSTDTMVLITEKLHFGSLTPIQSQALPAIMSGRDVIGISKTGSGKTISYLLPLLRQVKAQRPLSKHETGPMGLILAPTRELALQIHEEVTKFTEADTSIRSVCCTGGSEMKKQITDLKRGTEIVVATPGRFIDILTLNDGKLLSTKRITFVVMDEADRLFDLGFEPQITQIMKTVRPDKQCVLFSATFPNKLRSFAVRVLHSPISITINSKGMVNENVKQKFRICHSEDEKFDNLVQLIHERSEFFDEVQSENDGQSSDVEEVDAKAIIFVSSQNICDFISKKLLNAGIVTCAIHAGKPYQERLMNLEKFKREKNSILLCTEVLSRGLNVPEVSLVIIYNAVKTFAQYVHTTGRTARGSRSGTAITLLLHDELSGAYILSKAMRDEEIKALDPLQAKELQEMSAKFESGMKKGKFRLSKGFGGKGLENIKSKREEAQNKDLELKKNDKRSDDLEKKISNPREGHDSVSESSALIPRLNYELFKESTDGSIIFYAKVYINDLPQIVRWEATKNTTLLFIKHETGCSITNKGKFYPEGKEPKNENDEPKLYLLIEGQDEKDIQLSIELLEQKVKEGVVKAASLSLKSTKY
binds: all assays above
